Assay results taken from the supplement of paper PMC12889115.
The other results are listed elsewhere or left out. These are raw signals, not scaled to a control.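 In the initial screen, polymyxin B was used at a concentration that permeabilizes Salmonella's outer membrane but not its inner membrane. Maximum growth was set by DMSO wells with or without polymyxin B. Since plates varied, data were ranked per plate, and compounds giving the lowest OD600 advanced as hits.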

System: Salmonella enterica serovar Typhimurium SL1344
Assay: bacterial growth OD600 after 18 h with compound and polymyxin B; higher = more bacterial growth (less inhibition)
Conditions: 50 µM, Mueller-Hinton broth

SMILES: Cc1nccn1CCC(=O)NCc1cccnc1Oc1ccccc1
- bacterial growth OD600 (polymyxin B 1 µg/mL): 0.922

SMILES: Cc1nc(N2CCC(NCc3csc(-c4cccs4)n3)CC2)nc2ccc(F)cc12
- bacterial growth OD600 (polymyxin B 0.75 µg/mL): 0.754

SMILES: COc1cccc(CCC(=O)N2CCc3c(cnc(C)c3CNS(=O)(=O)c3cccs3)C2)c1
- bacterial growth OD600 (polymyxin B 0.75 µg/mL): 0.785

SMILES: COc1ccccc1OCc1cc(C(=O)N2C[C@@H](C)O[C@@H](C)C2)n[nH]1
- bacterial growth OD600 (polymyxin B 1 µg/mL): 0.834

SMILES: CSCCNC(=O)C1CCC(=O)N(Cc2cccc(C(F)(F)F)c2)C1 (configuration not stated)
- bacterial growth OD600 (polymyxin B 1 µg/mL): 0.956

SMILES: O=C(NC1CCCC1)c1ccc(N2CCC(NCc3ccc4c(c3)OCO4)CC2)cc1
- bacterial growth OD600 (polymyxin B 0.75 µg/mL): 0.717

SMILES: COCCN(C)C(=O)CC1(c2ccccc2)CC(=O)N(CCCOc2cccnc2)C1=O (configuration not stated)
- bacterial growth OD600 (polymyxin B 0.75 µg/mL): 0.844

SMILES: CSCCNC(=O)C1CCN(c2nc(C)c3cc(C(C)C)ccc3n2)CC1
- bacterial growth OD600 (polymyxin B 0.75 µg/mL): 0.877

SMILES: COc1ccc(OC)c(-c2nc(CN3CCCCC3c3nccs3)c(C)o2)c1 (configuration not stated)
- bacterial growth OD600 (polymyxin B 1 µg/mL): 0.502

SMILES: COCCN(Cc1cn(C)nc1-c1ccc(Oc2ccccc2)cc1)C(C)C
- bacterial growth OD600 (polymyxin B 1 µg/mL): 1.01

SMILES: CCN(CC)CC(=O)N1CCCC(C(=O)Nc2cccc(-c3ccc(F)cc3)c2)C1 (configuration not stated)
- bacterial growth OD600 (polymyxin B 1 µg/mL): 1

SMILES: CC(=O)NCC(=O)N1CCCC(CCc2c(F)cccc2F)C1 (configuration not stated)
- bacterial growth OD600 (polymyxin B 0.75 µg/mL): 0.798

SMILES: CN(CC1(O)CCCN(CC2CCC2)C1=O)C1CCCCC1 (configuration not stated)
- bacterial growth OD600 (polymyxin B 1 µg/mL): 0.955

SMILES: CCn1c(-c2cccnc2)nc2cc(NC(=O)COC)cc(C(=O)NCc3ccccc3OC)c21
- bacterial growth OD600 (polymyxin B 0.75 µg/mL): 0.862

SMILES: COc1ccc(NC(=O)CCC2CCCN(Cc3cnc(SC)nc3)C2)c(C)c1 (configuration not stated)
- bacterial growth OD600 (polymyxin B 1 µg/mL): 0.863

SMILES: CC(=O)N1CCCC1C(=O)Nc1ccc(-c2nc3ccccc3o2)cc1 (configuration not stated)
- bacterial growth OD600 (polymyxin B 1 µg/mL): 0.998

SMILES: O=C(NC1CCc2ccccc21)c1coc(COc2ccc3c(c2)OCO3)n1 (configuration not stated)
- bacterial growth OD600 (polymyxin B 1 µg/mL): 0.953

SMILES: CCn1nc(C)cc1C(=O)N1CCCC(Nc2ccc(F)c(F)c2)C1 (configuration not stated)
- bacterial growth OD600 (polymyxin B 1 µg/mL): 0.943

SMILES: O=C(c1cc2ccccc2o1)N1CCC2(CCCN(Cc3ccccc3F)C2)C1 (configuration not stated)
- bacterial growth OD600 (polymyxin B 1 µg/mL): 0.027

SMILES: COc1ccccc1CCN1CCCC(CN(C)Cc2cnc(SC)nc2)C1 (configuration not stated)
- bacterial growth OD600 (polymyxin B 0.75 µg/mL): 0.77

SMILES: C=CCCC(=O)N1CCCCC1C(=O)Nc1cccc(-c2nnc(C)s2)c1 (configuration not stated)
- bacterial growth OD600 (polymyxin B 0.75 µg/mL): 0.744

SMILES: CCN1CCN(C(=O)c2ccc(N3CCC(NCc4cccc(-n5cccn5)c4)CC3)cc2)CC1
- bacterial growth OD600 (polymyxin B 0.75 µg/mL): 0.856

SMILES: COC(=O)CNC(=O)c1coc(COc2ccc(F)cc2)n1
- bacterial growth OD600 (polymyxin B 1 µg/mL): 1.12

SMILES: O=C1CCC(C(=O)N2CCN(c3ccccc3)C(=O)C2)CN1Cc1ccc(Cl)cc1 (configuration not stated)
- bacterial growth OD600 (polymyxin B 1 µg/mL): 0.953

SMILES: COC(=O)CN(C)C(=O)Cc1c2c(n(CC(C)C)c1C)CC(C)(C)CC2=O
- bacterial growth OD600 (polymyxin B 1 µg/mL): 0.852

SMILES: CSc1ccc(CN2CCN(Cc3ccccc3F)C(CCO)C2)cc1 (configuration not stated)
- bacterial growth OD600 (polymyxin B 1 µg/mL): 1.05

SMILES: Cc1ncsc1CCC(=O)N1CCCC(C(=O)c2ccc(Oc3ccccc3)cc2)C1 (configuration not stated)
- bacterial growth OD600 (polymyxin B 1 µg/mL): 0.01

SMILES: O=C(Nc1ccc(Oc2ccccc2F)cc1)C1CCCCN1C(=O)c1ccccn1 (configuration not stated)
- bacterial growth OD600 (polymyxin B 1 µg/mL): 0.902

SMILES: CN(Cc1nc(Cc2ccccc2F)no1)Cc1cccc2ncccc12
- bacterial growth OD600 (polymyxin B 1 µg/mL): 1.01

SMILES: COc1cccc(-c2ccc(NC(=O)C3CCCN3C(=O)c3ccco3)cc2)c1 (configuration not stated)
- bacterial growth OD600 (polymyxin B 1 µg/mL): 0.856

SMILES: COc1cccc(C(C)N(C)Cc2cn(C)nc2-c2cccc(Cl)c2)c1 (configuration not stated)
- bacterial growth OD600 (polymyxin B 1 µg/mL): 0.89

SMILES: COCCn1cnc2cc(C(=O)N(C)CCC3CCCCO3)cc(NC(=O)c3cccnc3)c21 (configuration not stated)
- bacterial growth OD600 (polymyxin B 0.75 µg/mL): 0.783
